Read-outs that look alike come from different tables or passages of the source.

Amino acid sequences for entries named in this document (tags omitted). Residues count along the entry.
UniProt Q5NFG1, 1-205: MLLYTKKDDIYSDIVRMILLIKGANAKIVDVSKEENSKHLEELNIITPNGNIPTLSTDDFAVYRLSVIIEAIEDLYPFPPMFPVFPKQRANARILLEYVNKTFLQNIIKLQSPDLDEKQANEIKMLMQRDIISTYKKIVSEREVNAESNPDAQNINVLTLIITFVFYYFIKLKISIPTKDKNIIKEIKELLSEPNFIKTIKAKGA

For test [1], the target named is T1, Ft-MglA (Francisella tularensis, UniProt Q5NFG1). As to the kind of experiment: biochemical. Conditions: read-out: ΔTm (°C) ^1 / Ft-MglA.
Test [2] concerns E. coli. As to the kind of experiment: microbe, parasite or virus in culture. Particulars: Escherichia coli, read-out: E. coli MIC (mM).
For test [3], the target named is T1, Ft-MglA. As to the kind of experiment: biochemical. Conditions: read-out: ΔTm (°C) ^1.

In the case of `CC(C)(C)CC(C)(C)c1ccc(OCCOCC[N+](C)(C)Cc2ccccc2)cc1` [Benzethonium chloride], the ΔTm at 40 µM in test [1] is 8.5 ± 1.7 °C. In addition, in test [2], the MIC came out at 0.05 mM.
For `O=C(CCCN1CCC(O)(c2ccc(Cl)cc2)CC1)c1ccc(F)cc1` [Haloperidol], the ΔTm at 40 µM in test [3] was determined as 4.6 ± 1.7 °C.

The values are drawn from paper PMC3553074 (PLoS ONE, 2013).
